Laboratory results from PMC3490959.
Results are given in words; binding and its absence hold for the method and conditions named. A result given as binding can be weak or reduced; the word gives no strength. Sequences can lack the tags named with a protein.

Target: T1, Full-length human FLCN fused to LexA (N-FLCN-LexA-C), yeast two-hybrid bait (human) (UniProt Q8NFG4)
T1 sequence: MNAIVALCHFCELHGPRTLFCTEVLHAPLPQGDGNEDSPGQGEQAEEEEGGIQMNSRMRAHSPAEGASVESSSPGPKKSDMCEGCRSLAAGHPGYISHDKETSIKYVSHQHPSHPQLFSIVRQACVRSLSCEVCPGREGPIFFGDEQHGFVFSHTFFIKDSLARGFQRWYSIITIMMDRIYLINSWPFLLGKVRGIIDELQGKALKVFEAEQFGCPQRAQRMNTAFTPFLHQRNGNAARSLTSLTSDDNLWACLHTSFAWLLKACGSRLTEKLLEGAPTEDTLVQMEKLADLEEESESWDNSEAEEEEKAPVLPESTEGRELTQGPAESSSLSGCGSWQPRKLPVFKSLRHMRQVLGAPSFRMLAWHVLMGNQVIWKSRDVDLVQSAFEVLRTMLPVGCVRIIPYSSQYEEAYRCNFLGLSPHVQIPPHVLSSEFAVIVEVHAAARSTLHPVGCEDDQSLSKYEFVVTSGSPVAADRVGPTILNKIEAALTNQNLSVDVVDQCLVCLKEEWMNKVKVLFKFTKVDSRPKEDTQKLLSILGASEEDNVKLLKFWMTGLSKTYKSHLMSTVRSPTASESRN
Experiment: two-hybrid; FLCN-LexA bait (pB29) screened against the Hybrigenics Human Fetal Brain_RP1 library; done by Hybrigenics

binding: binds
Substance: p0071 prey regions from the Hybrigenics Human Fetal Brain_RP1 library (domain or fragment)
